Laboratory results reported in paper doi:10.1101/2021.03.24.436811.
These are yes or no findings as the source states them, for the method shown. For some assays here: In cells and extracts the contact can be indirect. Some binding calls cover weakened binding; strength is not graded here. For some assays here: Where a sequence is shown, tags or fusion partners need not be part of it.

Protein sequences, listed by entry. Tags and fused reporters are not part of them.
UniProt Q39255: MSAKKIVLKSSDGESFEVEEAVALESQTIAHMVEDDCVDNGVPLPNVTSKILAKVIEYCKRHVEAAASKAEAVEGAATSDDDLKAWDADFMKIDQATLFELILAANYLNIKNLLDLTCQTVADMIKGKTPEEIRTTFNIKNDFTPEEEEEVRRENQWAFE
UniProt Q94AH6: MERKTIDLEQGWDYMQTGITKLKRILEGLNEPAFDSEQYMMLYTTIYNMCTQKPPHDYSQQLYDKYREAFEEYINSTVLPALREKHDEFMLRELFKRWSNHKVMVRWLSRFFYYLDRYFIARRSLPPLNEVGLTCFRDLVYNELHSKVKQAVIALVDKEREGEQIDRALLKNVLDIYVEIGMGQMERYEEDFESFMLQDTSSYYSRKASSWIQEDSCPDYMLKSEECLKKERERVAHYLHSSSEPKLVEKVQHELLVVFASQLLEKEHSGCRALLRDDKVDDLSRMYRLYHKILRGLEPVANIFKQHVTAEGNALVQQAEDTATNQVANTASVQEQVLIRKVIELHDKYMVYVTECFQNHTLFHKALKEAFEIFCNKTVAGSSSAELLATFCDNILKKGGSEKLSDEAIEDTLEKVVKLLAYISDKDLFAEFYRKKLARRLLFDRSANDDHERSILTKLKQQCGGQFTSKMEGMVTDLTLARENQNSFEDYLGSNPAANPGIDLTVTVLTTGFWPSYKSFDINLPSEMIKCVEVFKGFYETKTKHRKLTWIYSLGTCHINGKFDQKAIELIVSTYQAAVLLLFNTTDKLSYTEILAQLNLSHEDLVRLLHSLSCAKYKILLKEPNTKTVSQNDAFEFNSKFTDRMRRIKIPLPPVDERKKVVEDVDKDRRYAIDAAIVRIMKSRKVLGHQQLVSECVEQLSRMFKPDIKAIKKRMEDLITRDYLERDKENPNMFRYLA

B1: FBW2 (pGADT7-FBW2, yeast two-hybrid) (protein, UniProt Q9ZPE4 1-317)
chain: MEEDCEFRHWDELIPDALGLIFSHLPLQEVLTVVPRVCKAWNRAVTGPYCWQEIDIELWSNRFHQSDHLDRMLEMLIPRSAGSLRKLSVTGLRNDSIFSFIAQHAGSLKTLKVPRSGLTNSGVVNVAEKLSSLTFLDLSYCCKIGPEAIQAIGKHCKSLREFCRNMHPLDVASVVSHDDEAYAIANTMPKLKRLEIAYHRVSTEGVLKILSCCVFLEFLELRGCWDVQLDNKFFKEKFPDMKVLGPRVIGFYDMINDWEDCCSDYFSDGSDYLAWEFFEDGVMGEFYEDEFEHGWDDNFYAENAVLDMEPHIWPPSP
B2: SDE3 fused to the N- or C-terminal fragment of YFP (BiFC) (protein, UniProt Q8GYD9 1-1002)
chain: MSVSGYKSDDEYSVIADKGEIGFIDYQNDGSSGCYNPFDEGPVVVSVPFPFKKEKPQSVTVGETSFDSFTVKNTMDEPVDLWTKIYASNPEDSFTLSILKPPSKDSDLKERQCFYETFTLEDRMLEPGDTLTIWVSCKPKDIGLHTTVVTVDWGSDRVERVVFLLAEDKISSSLTSNRPYSRSRRAPKKDFAVDDYVKGSRPSKVVERSFRNRLPLYEIPKEIREMIENKEFPDDLNEGLTARNYANYYKTLLIMEELQLEEDMRAYDMENVSMKRRGIYLSLEVPGLAERRPSLVHGDFIFVRHAYDDGTDHAYQGFVHRVEADEVHMKFASEFHQRHTAGSVYNVRFTYNRINTRRLYQAVDAAEMLDPNFLFPSLHSGKRMIKTKPFVPISPALNAEQICSIEMVLGCKGAPPYVIHGPPGTGKTMTLVEAIVQLYTTQRNARVLVCAPSNSAADHILEKLLCLEGVRIKDNEIFRLNAATRSYEEIKPEIIRFCFFDELIFKCPPLKALTRYKLVVSTYMSASLLNAEGVNRGHFTHILLDEAGQASEPENMIAVSNLCLTETVVVLAGDPRQLGPVIYSRDAESLGLGKSYLERLFECDYYCEGDENYVTKLVKNYRCHPEILDLPSKLFYDGELVASKEDTDSVLASLNFLPNKEFPMVFYGIQGCDEREGNNPSWFNRIEISKVIETIKRLTANDCVQEEDIGVITPYRQQVMKIKEVLDRLDMTEVKVGSVEQFQGQEKQVIIISTVRSTIKHNEFDRAYCLGFLSNPRRFNVAITRAISLLVIIGNPHIICKDMNWNKLLWRCVDNNAYQGCGLPEQEEFVEEPFKQEGSSNGPQYPPEAEWNNSGELNNGGANENGEWSDGWNNNGGTKEKNEWSDGWNSNGGGTKKKDEWSDGWDNNGGTNGINQEGSSNAPQDPQEAEWNDSGEVKNGGTKEKDVRSDGWNNNGGKNEKEECCDGWKDGGSGEEIKNGGKFETRGDFVAKEEDEWSDGWK
B3: BPM5 fused to the N- or C-terminal fragment of YFP (BiFC) (protein, UniProt Q1EBV6 1-410)
chain: MSESVIQGSNPDRVLSPTSSKSVTQTVNGSHQFVIQGYSLAKGMGIGKHIASDNFSVGGYQWGIFFYPDGKNPEDNSSYVSVFIALASEGTEVRALFELALVDQSGKGKHKVHSHFERSLDGGPYTLKYRGSMWGYKRFFRRSILETSDYLKDDCLIINCTVGVVVSEILCPQLHSVHVPDSELGSHFGVLLDSMEGSDITFNIAGEKFLAHKLVLAARSPFFKSKFFSEFEANNTEVTINDLEPKVFKALLQFMYKDSLPEDVEPATAHTFERLKLSEIYETLIVKVLAAADKYDLIRLRLLCESHICKGVSVKSVAKILALADRYNAKELKGVCLKFTAENLAAVLETDAYQQMKDECVTLQSELLKAVAGHEEGSNSTGGAKSQSVWAQLSDGGGDTTSRHVRQRTT

Legend:
[1] = biological target: T1, 3HA-FBW2 (3x HA epitope at the N-terminus of the F-box protein FBW2) (Arabidopsis thaliana) (UniProt Q9ZPE4); test: co-IP
T1 sequence: B1 chain

[2] = biological target: ASK1 (yeast two-hybrid fusion) (Arabidopsis thaliana) (UniProt Q39255); test: two-hybrid
[3] = biological target: T2, full-length AGO1 fused to the N- or C-terminal fragment of YFP (BiFC) (Arabidopsis thaliana) (UniProt O04379); test: split reporter
T2 sequence: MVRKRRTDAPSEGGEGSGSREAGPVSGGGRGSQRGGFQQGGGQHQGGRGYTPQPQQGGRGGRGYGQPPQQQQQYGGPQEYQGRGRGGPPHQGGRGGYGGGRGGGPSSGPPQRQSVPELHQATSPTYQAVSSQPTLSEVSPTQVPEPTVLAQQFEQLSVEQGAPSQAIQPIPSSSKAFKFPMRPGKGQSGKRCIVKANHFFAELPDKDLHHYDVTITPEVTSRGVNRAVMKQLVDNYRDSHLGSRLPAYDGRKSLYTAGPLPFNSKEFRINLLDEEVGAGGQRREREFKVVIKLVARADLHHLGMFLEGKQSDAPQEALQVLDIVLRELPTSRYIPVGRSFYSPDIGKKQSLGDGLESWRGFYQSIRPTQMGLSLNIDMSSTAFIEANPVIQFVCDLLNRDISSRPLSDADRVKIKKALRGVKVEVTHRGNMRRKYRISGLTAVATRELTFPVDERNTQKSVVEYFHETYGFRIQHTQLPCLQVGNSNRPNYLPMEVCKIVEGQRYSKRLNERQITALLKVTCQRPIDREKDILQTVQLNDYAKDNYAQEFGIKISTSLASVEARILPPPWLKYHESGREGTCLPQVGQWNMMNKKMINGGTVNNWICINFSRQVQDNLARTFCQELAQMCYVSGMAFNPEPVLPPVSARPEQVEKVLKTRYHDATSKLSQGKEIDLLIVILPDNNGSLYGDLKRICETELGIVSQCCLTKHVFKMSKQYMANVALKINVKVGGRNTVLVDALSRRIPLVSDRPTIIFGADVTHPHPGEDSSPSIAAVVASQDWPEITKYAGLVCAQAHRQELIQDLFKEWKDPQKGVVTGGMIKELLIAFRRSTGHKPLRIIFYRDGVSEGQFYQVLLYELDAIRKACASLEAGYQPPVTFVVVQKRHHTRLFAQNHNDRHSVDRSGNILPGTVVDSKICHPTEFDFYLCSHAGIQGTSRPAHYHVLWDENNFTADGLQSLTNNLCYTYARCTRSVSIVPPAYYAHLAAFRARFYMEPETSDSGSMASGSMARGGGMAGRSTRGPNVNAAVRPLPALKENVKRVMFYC

Row | Molecule | binding [1] | binding [3] | other results
1 | CULLIN1 (CUL1), endogenous (from UniProt Q94AH6 1-738) | binds |  | 
2 | ASK1 (Skp1-like protein 1), endogenous (from UniProt Q39255 1-160) | binds |  | 
3 | B1 |  |  | binding [2]: binds
4 | B2 |  | binds | 
5 | B3 |  | no binding | 
